Test results published in patent US20050049186A1, “Peptides mimicking the biological activity of steroid hormones and their uses” (priority 2000, published 2005).
At least one compound was matched to its structure with a doubt left. Peptide text beside a SMILES is read from it.

Assays:
anti-E2, clone 15 = experiment: ELISA: competition with solid-phase estradiol ovalbumin conjugate for anti-E2 clone 15; assay type: binding, mouse
Description: (§1) ELISA methodology was used first for the initial screening of the various peptides for antibody binding specificity.

[1] = test system: anti-E2 antibodies, clones 8D9, 11B6 and 2F9; experiment: ELISA: competition with solid-phase estradiol ovalbumin conjugate for other high affinity anti-E2 antibodies; assay type: binding
Description: as §1

[2] = E2 as control at 150 nM, all the anti-E2 antibodies tested

Structure (SMILES)	inhibition of the binding of immobilized estradiol ovalbumin conjugate to anti-E2, clone 15 (anti-E2, clone 15; peptide at a concentration of 0.5 mM)	inhibition of the binding of immobilized estradiol ovalbumin conjugate to other high affinity anti-E2 antibodies ([1]; peptide at 0.5 mM, clones 8D9, 11B6 and 2F9)	inhibition of the binding of estradiol ovalbumin conjugate to anti-E2 clone 15 (anti-E2, clone 15; [2])	inhibition of the binding of estradiol ovalbumin conjugate to other anti-E2 antibodies [1, 2]
CC(C)C[C@@H]1NC(=O)[C@H](C)NC(=O)[C@@H]2CCCN2C(=O)[C@H](CC(C)C)NC(=O)[C@H](CCC(=O)O)NC(=O)[C@H](C)NC(=O)[C@@H](N)CSSC[C@@H](C(=O)O)NC(=O)[C@@H]2CCCN2C(=O)[C@@H]2CCCN2C(=O)[C@@H]2CCCN2C(=O)[C@@H]2CCCN2C(=O)[C@H](CCCCN)NC(=O)[C@H]([C@@H](C)O)NC(=O)[C@H](CCC(=O)O)NC(=O)[C@H](Cc2ccccc2)NC(=O)[C@H](Cc2ccccc2)NC(=O)[C@H](Cc2c[nH]c3ccccc23)NC(=O)[C@H](CCCNC(=N)N)NC(=O)[C@H](CCCCN)NC(=O)[C@H]([C@@H](C)O)NC(=O)[C@@H]2CCCN2C(=O)[C@H](CC(=O)O)NC1=O [Peptide 2] (HELM PEPTIDE1{C.A.E.L.P.A.L.D.P.T.K.R.W.F.F.E.T.K.P.P.P.P.C}$PEPTIDE1,PEPTIDE1,1:R3-23:R3$$$V2.0; N-terminus and C-terminus assumed)	36%	not		
C[C@]12CC[C@@H]3c4ccc(O)cc4CC[C@H]3[C@@H]1CC[C@@H]2O [Estradiol, estradiol, reference compound]			30%	30%
